Data: PubChem BioAssay AID1347423 (Functional Genomics Laboratory (NCATS/FGL), 2020)
Screen size: about 52,000 sequences; about 210 (0.4%) were called active.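 The calls were made as follows: active = gene whose silencing raises cell survival under the drug, median off-target-corrected z-score across its silencing RNAs 2 or more; inactive = the rest.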 Some of the results follow.

Experiment: Resistance to Poly (ADP-Ribose) Polymerase inhibitor: Gene Identification via Genome-wide siRNA Screen
Details: mouse BRCA2 R2336H ES cells, olaparib, CellTiter-Glo viability; active compounds read high
Outline: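 Mouse BRCA2 R2336H ES cells were reverse-transfected with siRNA (20 nM final), treated at 48 h with 500 nM olaparib, and read by CellTiter-Glo after 72 h. Scores: MAD-based z per siRNA, median per gene, seed off-target correction.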

Q: Which z-score does the source give for GGCUCUGUGCAGACAUUUCTT against Pop5 here?
A: Its z-score is inactive: -0.0511.

Q: With GCCGAUCACACAGUGGAAATT against Spin2 as the sequence, how does the z-score read?
A: The z-score was inactive: 0.773.

Q: Which z-score does the source give for GGAGUUUGUGGAUGACUUUTT against Rsn here?
A: The z-score was inactive: 0.235.

Q: For GCUGUCACGAGGAAUCAUGTT against Scarf2, which z-score is on record?
A: The z-score was inactive: 1.21.

Q: With “CCAAGAAAUUGCACUGGGATT against A130050O07Rik” as the sequence, how does the z-score read?
A: The z-score was inactive: 0.217.

Q: With GGCUACCACAUCUGAUAACTT against Serpind1 as the sequence, how does the z-score read?
A: The z-score was inactive: -1.25.

Q: With GGAGAACAGAUAAAUAGUGTT against Msh2 as the sequence, how does the z-score read?
A: The z-score was inactive: -0.135.

Q: For “GGACCUGCGUUUUGGCACATT against 9430007A20Rik”, which z-score is on record?
A: The z-score was inactive: 0.306.

Q: With GGCUUACCGUACCUUCCAATT against Cntf as the sequence, how does the z-score read?
A: The z-score was inactive: -2.26.

Q: For GCAAUAAAGCUCCUUCCAUTT against Ctrc, which z-score is on record?
A: The z-score was inactive: -0.714.

Q: For GGCUAAUGAUCAGGAUAUUTT against Cdh8, which z-score is on record?
A: The z-score was inactive: 0.716.

Q: With “GGAGAGAACUGGAAGAGAGTT against 0610040D20Rik” as the sequence, how does the z-score read?
A: Its z-score is inactive: -2.18.

Q: For GGUGUCUGAAUUUGUGGCUTT against Abtb1, which z-score is on record?
A: The z-score was inactive: 1.65.

Q: With CCUAUGCAUCAGACCUUUGTT against Nedd9 as the sequence, how does the z-score read?
A: Its z-score is inactive: -0.864.

Q: Which z-score does the source give for GGGAGAGGUAUGUCUGUAATT against Il15ra here?
A: Its z-score is inactive: -1.95.

Q: For GGAGUACAGCUGUGUAAUATT against Pcna, which z-score is on record?
A: Its z-score is inactive: -3.05.

Q: Which z-score does the source give for GGCGGGUAGAUAUCAUGGGTT against Obfc1 here?
A: The z-score was inactive: 1.73.

Q: With GGGCUUAUUCUCAGUUCUGTT against Slc17a1 as the sequence, how does the z-score read?
A: Its z-score is inactive: -0.646.

Q: With GCGAUUGAGAGGCUACACUTT against Pigb as the sequence, how does the z-score read?
A: Its z-score is inactive: -0.799.

Q: For CCUUUUCCCGCUCUUAAAATT against Olfr1260, which z-score is on record?
A: Its z-score is inactive: 0.248.

Q: With GGCAAUUACUUCAUUGAUCTT against Kctd6 as the sequence, how does the z-score read?
A: Its z-score is inactive: -0.144.

Q: Which z-score does the source give for “GGGUAAAAAGACGAAGAAATT against D530031C13Rik” here?
A: Its z-score is inactive: 0.0509.

Q: With GGAUCUGGCAUUCAGAUAATT against Oazin as the sequence, how does the z-score read?
A: The z-score was inactive: 0.544.

Q: Which z-score does the source give for CGCAGUGUAUGAUUAUAUATT against Dp1 here?
A: Its z-score is inactive: 1.38.

Q: With GGAUGAAUCUGAAGAUUCCTT against Nol3 as the sequence, how does the z-score read?
A: The z-score was inactive: 1.63.

Q: Which z-score does the source give for “GGUUUUGUCACCAUAGCCATT against 3110040N11Rik” here?
A: The z-score was inactive: 1.82.

Q: Which z-score does the source give for GGAGGAAGAAGAGAUACCUTT against Foxh1 here?
A: The z-score was inactive: -0.259.

Q: Which z-score does the source give for GCUCCUGGUCUCAUUUACATT against BC066223 here?
A: Its z-score is inactive: -0.915.

Q: For GGUGAACCUGUCAAACCUUTT against Hspbap1, which z-score is on record?
A: The z-score was inactive: 1.37.

Q: With GGUGUCUGCUUCUUCAAAGTT against Slc25a26 as the sequence, how does the z-score read?
A: Its z-score is inactive: -2.64.

Q: With GGGACAUUUUCUUCUUUAUTT against Gch1 as the sequence, how does the z-score read?
A: Its z-score is inactive: 0.734.

Q: Which z-score does the source give for GGAGAGAACAUUGAACAAATT against Ssx2ip here?
A: Its z-score is inactive: -0.43.

Q: With “GGAAUGAAAGAGAAAGAUUTT against C530050O22Rik” as the sequence, how does the z-score read?
A: Its z-score is inactive: -0.728.

Q: For “AACCAACUCAGCUUACAUUTT against D9Ertd402e”, which z-score is on record?
A: Its z-score is inactive: 1.06.

Q: Which z-score does the source give for “CCAAGAGAUCCUUAUUAAATT against 1110005F07Rik” here?
A: Its z-score is inactive: -0.486.

Q: Which z-score does the source give for GGGCUUUCUAUGCUGGAGGTT against Atp8b3 here?
A: Its z-score is inactive: 1.75.

Q: With “GGCACGGAAAUCUUUACAATT against 1110039B18Rik” as the sequence, how does the z-score read?
A: Its z-score is inactive: 0.269.

Q: For GGAAUUUUAGCCAAGACAATT against Bbs4, which z-score is on record?
A: The z-score was inactive: 0.295.

Q: Which z-score does the source give for “GGAAUGGAAACAGAGUUAUTT against 9930016F01Rik” here?
A: Its z-score is inactive: 0.53.

Q: Which z-score does the source give for GGCUCUGUACCAUGAGGAATT against Krt2-16 here?
A: The z-score was inactive: -0.23.

Q: With “GGGCUUCAGAAGAGAAAAUTT against 1100001H23Rik” as the sequence, how does the z-score read?
A: Its z-score is inactive: -0.589.

Q: With GUUAACCCUGAGCCUAAACTT against Spata3 as the sequence, how does the z-score read?
A: Its z-score is inactive: 1.56.

Q: For GCAUUGUGAUGACCACCUGTT against Slc10a1, which z-score is on record?
A: Its z-score is inactive: -0.219.

Q: With “GGAUAUGAACCCUACUCUUTT against 6430550H21Rik” as the sequence, how does the z-score read?
A: Its z-score is inactive: -1.5.

Q: Which z-score does the source give for GCGAGCUCAGAUCAAAUAGTT against Acsl3 here?
A: Its z-score is inactive: -2.48.

Q: Which z-score does the source give for “GCAUUGAGGAACGACUCACTT against 4921521J11Rik” here?
A: The z-score was inactive: 0.642.

Q: Which z-score does the source give for GAUUUGCUACUCCUCUACGTT against Olfr1273 here?
A: The z-score was inactive: 0.538.

Q: For GGAGAAAUGUCAGUGCGAUTT against Mlc1, which z-score is on record?
A: The z-score was inactive: -1.21.

Q: With GAUUUCUUUGUGUCAUUGATT against V1rc12 as the sequence, how does the z-score read?
A: The z-score was inactive: -0.733.

Q: With GGCAGAAAGUUAUUAUAGGTT against BC005764 as the sequence, how does the z-score read?
A: The z-score was inactive: 0.818.

Q: For GGUCAACUCUACCAUAUCATT against Tnfsf8, which z-score is on record?
A: Its z-score is inactive: 0.94.

Q: Which z-score does the source give for GGAACAGGGCAGUAAGACCTT against Dhcr24 here?
A: The z-score was inactive: 0.743.

Q: With GGCCCUCAAAAAUCACGAGTT against Ehd1 as the sequence, how does the z-score read?
A: The z-score was inactive: 1.72.

Q: With “GCUCCAGAUGGGUAGAUCUTT against 2210013M04Rik” as the sequence, how does the z-score read?
A: Its z-score is inactive: 1.06.

Q: With GGAAGAUGAAGAUGAGAAUTT against Igbp1b as the sequence, how does the z-score read?
A: Its z-score is inactive: -2.53.

Q: For GGCUGCAUGGUACAGAUCUTT against Olfr463, which z-score is on record?
A: The z-score was inactive: -1.7.

Q: For “GGAUACCAUGGUCGUCUGATT against 1700020O03Rik”, which z-score is on record?
A: The z-score was inactive: 0.0513.

Q: For GGAAGAGUAAAGGAGAUUUTT against Spop, which z-score is on record?
A: The z-score was inactive: -2.04.

Q: For GGACACAAAAGUUCACAUUTT against Smpx, which z-score is on record?
A: The z-score was inactive: -0.379.

Q: With GGAUUCUGACAAAACUGGATT against Nt5c1b as the sequence, how does the z-score read?
A: Its z-score is inactive: -0.477.

Q: For GGAGCAUCACUCUUAACAUTT against Krt2-6g, which z-score is on record?
A: Its z-score is inactive: 2.34.

Q: With GCGAUGUGGCCUAAAUAGGTT against Igfals as the sequence, how does the z-score read?
A: The z-score was inactive: -0.243.

Q: With GGACAGUCAUUACCAAAAATT against Topors as the sequence, how does the z-score read?
A: The z-score was inactive: -2.16.

Q: For CCAAUAAAAGUUGAGAGCUTT against Krt1-18, which z-score is on record?
A: Its z-score is inactive: 0.386.

Q: For CCUGAUGGAUGAUGAAUCATT against Trap1a, which z-score is on record?
A: Its z-score is inactive: 0.865.

Q: For CGUGCUGACUCAUAACCUGTT against Dnclic2, which z-score is on record?
A: Its z-score is inactive: 0.943.
